Laboratory results published in paper PMC6797205.
Results are given in words; binding and its absence hold for the method and conditions named. Some results given as binding are weak or reduced against the parent protein; the word gives no strength.

Biological target: Arabidopsis thaliana ARF5 PB1 domain (AtARF5-PB1) (Arabidopsis thaliana) (UniProt P93024)
Test: SEC-MALS; SEC-MALLS on Superdex-S200 increase, 25 C, 0.5 mL/min; Tris-HCl 20 mM pH 8, TCEP 1 mM (untagged CaARF-PB1 and AtARF5); CaARF-PB1 at 5, 2.5, 1.25 and 0.625 mg/mL; both purified

B1: Arabidopsis thaliana ARF5 PB1 domain (AtARF5-PB1) (domain or fragment, UniProt P93024 779-902)
chain: SKGSSWQKIATPRVRTYTKVQKTGSVGRSIDVTSFKDYEELKSAIECMFGLEGLLTHPQSSGWKLVYVDYESDVLLVGDDPWEEFVGCVRCIRILSPTEVQQMSEEGMKLLNSAGINDLKTSVS
binding: binds
